Laboratory results reported in PMC11153594.
Results are given in words; binding and its absence hold for the method and conditions named. Binding seen in cells or lysates may run through a third protein. Some binding calls cover weakened binding; strength is not graded here. Where a sequence is shown, tags or fusion partners need not be part of it.

Key:
[1] = molecular target: KREMEN1 (Kringle containing transmembrane protein 1) fused at the C-terminus to SmBiT or LgBiT (UniProt Q96MU8); assay: split reporter; HEK293T cells transfected for 48 h with KREMEN1-SmBiT and KREMEN1-LgBiT plasmids (200 ng/well); luminescence in living cells (Nano-Glo Live Cell Assay System), normalized to cell viability
[2] = molecular target: KREMEN1 (Kringle containing transmembrane protein 1) fused at the C-terminus to SmBiT or LgBiT (UniProt Q96MU8); assay: split reporter; HS-ES-2R cells stably expressing KREMEN1-SmBiT and KREMEN1-LgBiT; luminescence in living cells, normalized to cell viability; cells untreated, treated with 0.2 or 0.4 uM CP-C27 for 24 h, transfected with siKREMEN2, or transduced with a KREMEN2 cDNA vector

B1: KREMEN1 (Kringle containing transmembrane protein 1) fused at the C-terminus to SmBiT or LgBiT (protein, UniProt Q96MU8-2 20-492)
chain: ARPAPSPGLGPGPECFTANGADYRGTQNWTALQGGKPCLFWNETFQHPYNTLKYPNGEGGLGEHNYCRNPDGDVSPWCYVAEHEDGVYWKYCEIPACQMPGNLGCYKDHGNPPPLTGTSKTSNKLTIQTCISFCRSQRFKFAGMESGYACFCGNNPDYWKYGEAASTECNSVCFGDHTQPCGGDGRIILFDTLVGACGGNYSAMSSVVYSPDFPDTYATGRVCYWTIRVPGASHIHFSFPLFDIRDSADMVELLDGYTHRVLARFHGRSRPPLSFNVSLDFVILYFFSDRINQAQGFAVLYQAVKEELPQERPAVNQTVAEVITEQANLSVSAARSSKVLYVITTSPSHPPQTVPGSNSWAPPMGAGSHRVEGWTVYGLATLLILTVTAIVAKILLHVTFKSHRVPASGDLRDCHQPGTSGEIWSIFYKPSTSISIFKKKLKGQSQQDDRNPLAIQDSEVTSLIWSQGQPRSI
[1]
  binding: binds
[2]
  binding: binds
